Data reported in PubChem BioAssay AID192 (DTP/NCI, 2004).
The list does not hold the whole screen: it gathers tests that were run many times, whatever their T/C, doses with no T/C, and many T/C values between a quarter and a half above the control. Other doses and runs of a compound stand elsewhere. T/C gives the treated animals as a percentage of the vehicle group. Some doses have a count of surviving animals in place of a T/C: the source files T/C as zero there, which appears to mark a toxic dose or a test without result, not a measured value. Some survivor counts are full or nearly so, which does not show that the dose was tolerated: survival well below the control is almost never listed, so the zero probably covers shortened survival too. Counts of survivors are from the toxicity check (mostly the fifth day) where no day follows; animals may have died later. Schedules are NCI's codes, taken here to give the interval after Q, in days (D) or hours (H), and the number of doses after X. Some entries hold several experiments; their values stand side by side, smallest first. Brackets with × stand for listed records that agree. For survival time, this PubChem deposit counts one and a half times the control or more as active, and values a quarter to a half above the control carry no call in these data; other NCI protocols may use other cut-offs. Some T/C values carry the count of animals alive at the toxicity check (mostly the fifth day); where none is given, no animal had died by that day. Peptide text beside a SMILES is read from it. * marks the point of attachment. Cbz = O=C(OCc1ccccc1)*

Test system: BDF1 mice, B16 melanoma ip, median survival T/C
Experiment: NCI In Vivo Anticancer Drug Screen. Data for tumor model B16 Melanoma (intraperitoneal) in B6D2F1 (BDF1) mice
Conditions: T/C endpoint: median survival time, higher T/C = longer survival
How it was run: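 Tumor-bearing mice received test compound or vehicle. Survival or tumor size was then measured in both groups. The treated-group figure was divided by the control-group figure.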

[1] = dose: 200.0 mg/kg/injection, schedule: Q01DX009 (ip), vehicle: saline with Tween-80
[2] = dose: 400.0 mg/kg/injection, schedule: Q01DX009 (ip), vehicle: saline with Tween-80
[3] = dose: 400.0 mg/kg/injection, schedule: Q01DX009 (ip), vehicle: saline
[4] = dose: 25.0 mg/kg/injection, schedule: Q01DX009 (ip), vehicle: saline
[5] = dose: 50.0 mg/kg/injection, schedule: Q01DX009 (ip), vehicle: saline
[6] = dose: 100.0 mg/kg/injection, schedule: Q01DX009 (ip), vehicle: saline
[7] = dose: 100.0 mg/kg/injection, schedule: Q01DX009 (ip), vehicle: saline with Tween-80
[8] = dose: 25.0 mg/kg/injection, schedule: Q01DX009 (ip), vehicle: Klucel (hydroxypropylcellulose) (HPC)
[9] = dose: 100.0 mg/kg/injection, schedule: Q01DX009 (ip), vehicle: Klucel (hydroxypropylcellulose) (HPC)
[10] = dose: 200.0 mg/kg/injection, schedule: Q01DX009 (ip), vehicle: Klucel (hydroxypropylcellulose) (HPC)
[11] = dose: 400.0 mg/kg/injection, schedule: Q01DX009 (ip), vehicle: Klucel (hydroxypropylcellulose) (HPC)
[12] = dose: 50.0 mg/kg/injection, schedule: Q01DX009 (ip), vehicle: saline with Tween-80
[13] = dose: 50.0 mg/kg/injection, schedule: Q01DX009 (ip), vehicle: Klucel (hydroxypropylcellulose) (HPC)

## CN(C)c1nc(N(C)C)nc(N(C)C)n1
dose: 25.0 mg/kg/injection, schedule: Q01DX009 (ip), vehicle: saline with Tween-80, evaluated on day 45
  T/C: 101 % of control
dose: 25.0 mg/kg/injection, schedule: Q01DX009 (ip), vehicle: saline with Tween-80, evaluated on day 60
  T/C: 97, 98 (2×), 100 (3×), 103, 105, 107 [9 of 10 alive], 126 % of control
dose: 50.0 mg/kg/injection, schedule: Q01DX009 (ip), vehicle: saline with Tween-80, evaluated on day 45
  T/C: 109 % of control
dose: 50.0 mg/kg/injection, schedule: Q01DX009 (ip), vehicle: saline with Tween-80, evaluated on day 60
  T/C: 98, 100, 101 (2×), 102, 103, 105 [9 of 10 alive], 109, 110, 115 % of control
dose: 100.0 mg/kg/injection, schedule: Q01DX009 (ip), vehicle: saline with Tween-80, evaluated on day 45
  T/C: 102 % of control
dose: 100.0 mg/kg/injection, schedule: Q01DX009 (ip), vehicle: saline with Tween-80, evaluated on day 60
  T/C: 98 (2×), 107 (2×), 108, 109, 110, 111, 112, 113 % of control [9 of 10 alive]
dose: 160.0 mg/kg/injection, schedule: Q01DX009 (ip), vehicle: saline with Tween-80
  survivor count: 9 of 10
[1]
  T/C: 86 [9 of 10 alive], 99 [9 of 10 alive], 104 % of control
  survivor count: 9 of 10 (2×) and 10 of 10
[2]
  survivor count: 0 of 10, 1 of 10, 2 of 10, 3 of 10, 4 of 10, 5 of 10, 6 of 10, 7 of 10
dose: 400.0 mg/kg/injection, schedule: Q02DX009 (ip), vehicle: Klucel (hydroxypropylcellulose) (HPC)
  survivor count: 9 of 10

## CC1CN1P(=O)(OCCC#N)N1CC1C (stereo not drawn)
[3]
  T/C: 136 % of control

## C[n+]1cc2c3ccccc3c(N)cc2c2ccccc21
dose: 6.25 mg/kg/injection, schedule: Q01DX009 (ip), vehicle: saline
  T/C: 126 % of control
dose: 12.5 mg/kg/injection, schedule: Q01DX009 (ip), vehicle: saline
  T/C: 144 % of control
[4]
  T/C: 132 % of control
[5]
  survivor count: 7 of 7
[6]
  survivor count: 7 of 7

## N#Cc1c(F)c(F)c(C#N)c(F)c1F
dose: 5.0 mg/kg/injection, schedule: Q01DX009 (ip), vehicle: saline with Tween-80
  survivor count: 6 of 6
dose: 10.0 mg/kg/injection, schedule: Q01DX009 (ip), vehicle: saline with Tween-80
  survivor count: 5 of 6

## Cn1c(C(Cl)Cl)nc2ccccc2c1=O
[7]
  survivor count: 6 of 6

## O=C(O)c1[nH]c(=O)[nH]c(=O)c1F
dose: 8.0 mg/kg/injection, schedule: Q01DX009 (ip), vehicle: saline
  survivor count: 10 of 10
dose: 16.0 mg/kg/injection, schedule: Q01DX009 (ip), vehicle: saline
  survivor count: 10 of 10

## ClCc1ccc(Oc2ccc(CCl)cc2)cc1
[8]
  T/C: 128 % of control
[9]
  survivor count: 6 of 10
[10]
  survivor count: 2 of 10

## CCCCCCCCCCCC(=O)Nc1ccccc1
[9]
  survivor count: 10 of 10
[10]
  survivor count: 10 of 10
[11]
  survivor count: 9 of 10

## COC(=O)c1ccc(Cl)nc1
[10]
  survivor count: 9 of 10

## CCOC(=O)c1ccc(Nc2sc(C(=O)c3ccc(Br)cc3)c(N)c2C#N)cc1
[12]
  survivor count: 10 of 10
[7]
  survivor count: 10 of 10
[1]
  survivor count: 10 of 10
[2]
  survivor count: 9 of 10

## CN1C=c2c3c(ccc2=C2C=CC4C=C5OCOC5=CC4=C21)OCO3 (stereo not drawn)
dose: 7.5 mg/kg/injection, schedule: Q01DX009 (ip), vehicle: saline
  survivor count: 6 of 6
dose: 15.0 mg/kg/injection, schedule: Q01DX009 (ip), vehicle: saline
  survivor count: 6 of 6
dose: 30.0 mg/kg/injection, schedule: Q01DX009 (ip), vehicle: saline
  survivor count: 4 of 6
dose: 60.0 mg/kg/injection, schedule: Q01DX009 (ip), vehicle: saline
  survivor count: 2 of 6

## CNC(=O)Nc1c(C)cccc1C
[11]
  survivor count: 9 of 10

## Clc1ccc(COC(Cn2ccnc2)c2ccc(Cl)cc2Cl)c(Cl)c1 (stereo not drawn)
[11]
  survivor count: 10 of 10

## O=[N+]([O-])c1ccc(C2OC2c2ccccc2)cc1 (stereo not drawn)
[8]
  T/C: 134 % of control
dose: 37.5 mg/kg/injection, schedule: Q01DX009 (ip), vehicle: saline with Tween-80
  survivor count: 10 of 10

## C/C=C(/C)C(=O)O[C@H]1CCN2CC=C(COC(=O)[C@@](O)([C@H](C)OC)C(C)(C)O)[C@H]12
[5]
  survivor count: 6 of 6
[6]
  survivor count: 5 of 6

## COc1ccccc1CC(C)N (stereo not drawn)
dose: 80.0 mg/kg/injection, schedule: Q01DX009 (ip), vehicle: saline with Tween-80
  survivor count: 2 of 6

## C[n+]1ccccc1/C=N/O
dose: 150.0 mg/kg/injection, schedule: Q01DX009 (ip), vehicle: saline
  survivor count: 6 of 10
dose: 300.0 mg/kg/injection, schedule: Q01DX009 (ip), vehicle: saline
  survivor count: 1 of 10

## C1CNC2NCCNC2N1 (stereo not drawn)
[5]
  survivor count: 7 of 10
[6]
  survivor count: 9 of 10
dose: 200.0 mg/kg/injection, schedule: Q01DX009 (ip), vehicle: saline
  survivor count: 0 of 10 and 3 of 10
[3]
  survivor count: 0 of 10

## CC12CCC3C(CCC4CC(OC(=O)Cc5ccc(N(CCCl)CCCl)cc5)CCC43C)C1CCC(=O)N2 (stereo not drawn)
dose: 3.0 mg/kg/injection, schedule: Q01DX009 (ip), vehicle: saline with Tween-80
  T/C: 133 % of control
dose: 6.0 mg/kg/injection, schedule: Q01DX009 (ip), vehicle: saline with Tween-80
  T/C: 134 % of control
dose: 6.0 mg/kg/injection, schedule: Q01DX009 (ip), vehicle: saline
  T/C: 143 % of control
dose: 12.0 mg/kg/injection, schedule: Q01DX009 (ip), vehicle: saline with Tween-80
  T/C: 145 % of control
dose: 24.0 mg/kg/injection, schedule: Q01DX009 (ip), vehicle: saline with Tween-80
  survivor count: 9 of 10
dose: 24.0 mg/kg/injection, schedule: Q01DX009 (ip), vehicle: saline
  survivor count: 9 of 10

## CC(N)(Cc1ccc(O)c(O)c1)C(=O)O (stereo not drawn)
[4]
  survivor count: 10 of 10

## COc1cc(C)c(C2NC(=O)c3ccccc3N2)cc1C (stereo not drawn)
[11]
  T/C: 130 % of control

## O=P(CCCCCCP(=O)(N1CC1)N1CC1)(N1CC1)N1CC1
[8]
  T/C: 135 % of control
[13]
  T/C: 142 % of control
[10]
  survivor count: 9 of 10

## Cc1ccc(C(=O)NC2C(=O)NC(C(C)C)C(=O)N3CCCC3C(=O)N(C)CC(=O)N(C)C(C(C)C)C(=O)OC2C)c2c1Oc1c(c(C(=O)NC3C(=O)NC(C(C)C)C(=O)N4CCCC4C(=O)N(C)CC(=O)N(C)C(C(C)C)C(=O)OC3C)c3nc(CF)c(=O)oc3c1C)N2 (stereo not drawn)
dose: 0.5 mg/kg/injection, schedule: Q04DX003 (ip), vehicle: saline + alcohol
  survivor count: 10 of 10
dose: 1.0 mg/kg/injection, schedule: Q04DX003 (ip), vehicle: saline + alcohol
  survivor count: 10 of 10
dose: 2.0 mg/kg/injection, schedule: Q04DX003 (ip), vehicle: saline + alcohol
  survivor count: 10 of 10
dose: 4.0 mg/kg/injection, schedule: Q04DX003 (ip), vehicle: saline + alcohol
  survivor count: 0 of 10
dose: 62.5 micrograms/kg/injection, schedule: Q04DX003 (ip), vehicle: water
  T/C: 134 % of control

## NC(=O)C(Cc1ccccc1)NC(=O)C(Cc1ccccc1)NC(=O)C(Cc1ccccc1)NC(=O)OCc1ccccc1 (stereo not drawn) (Cbz-Phe-Phe-Phe-NH2; configuration not given here)
[12]
  survivor count: 10 of 10
[7]
  survivor count: 10 of 10
[1]
  survivor count: 10 of 10
[2]
  survivor count: 10 of 10

## CC(=O)Nc1ccc(Nc2ccc(C(=C3C=CC(=[N+](C)CCC#N)C=C3)c3ccc(N(C)CCC#N)cc3)cc2)cc1
dose: 12.5 mg/kg/injection, schedule: Q01DX009 (ip), vehicle: saline with Tween-80
  T/C: 125 % of control
dose: 25.0 mg/kg/injection, schedule: Q01DX009 (ip), vehicle: saline with Tween-80
  T/C: 134 % of control [9 of 10 alive]
[12]
  survivor count: 3 of 10
[7]
  survivor count: 1 of 10
[1]
  survivor count: 2 of 10
[2]
  survivor count: 1 of 10

## C=CS(C=C)=NS(=O)(=O)c1ccc(C)cc1
[13]
  survivor count: 0 of 10

## CC(=O)Nc1ccc2c(c1)C[N+](C)(C1CCCCC1)CO2 (stereo not drawn)
[12]
  survivor count: 10 of 10
